According to PMC10163288:
Some of the results follow.

B1: il2ra_site2_3nfp_normal_mot_HHH_b1_06797_000000164_0001_24_40_H_._HHH_b1_07797_0001_0000200020_0000001_0 (protein)
chain: SSSSSKVEEYLEAVLLVAELALEEGDEEAARRQLRLAIEAAELLGNPELLEKLEELLEEINSSSS
B2: il2ra_site1_2b5i_normal_mot_HHH_b2_04910_000000118_0001_1_19_H_._HHH_b2_03843_0001_0000400028_0000001_0_af2pred_dldesign_0_af2pred (protein)
chain: SSSSSPECEEALRLFLKANELFQAGKEEEAKKLLEEALEKAKKGKCNLLVKIIEAALKEISSSSS
B3: il2ra_site1_3nfp_sap_21_mot_HHH_b2_02066_af2_000000034_0001_1_16_H_._c2845cfc7c062bbeb7cd94dd36b2ebbf_0001_af2_0001_0000100001_0000001_0_0001_af2pred_0001_af2pr … (protein)
chain: SSSEEELQELFKLALELHKKLTNPEARQVVIHAMALVARATRTKDPELERRAREAIEEAEELDSS
B4: il2ra_site1_1z92_sap_14_mot_0152819cca26c81f8eead0111e16a660_0001_000000247_0001_36_50_H_._d46665258beb4c452e319e322a52fdaa_0001_0001_0000400033_0000001_0_0001 (protein)
chain: SSSSSLEKNARIAVRVAVEIAGLSEEQKELLEELAEELIREGLDALELIRELDRLAVELASSSSS
B5: il2ra_site1_3nfp_normal_mot_HHH_b2_05589_af2_000000178_0001_1_18_H_._HHH_b2_01005_af2_0001_0000200018_0000001_0_af2pred_0001_af2pred_1 (protein)
chain: SSSSSDELRELNKLLKEARELRKEGDPEEARRVLEEALELAEELGDELALEALRLLLERTSSSSS
B6: il2ra_site1_1z92_normal_mot_HHH_b2_06396_000000229_0001_39_55_H_._HEEHE_3358_0001_0000200013_0000001_0 (protein)
chain: DEEHDVERLTRLIEEIAGVPSVEVTFEDGEYTLEVEGDDEAAELARDAFRAFAKLLGVPFTVEKE
B7: il2ra_site1_3nfp_normal_mot_HHH_b1_01231_af2_000000247_0001_40_57_H_._HHH_b2_05487_af2_0001_0000200012_0000001_0_af2pred_0001_1_af2pred_swapped (protein)
chain: SSSSSSKLELLEKALELSARGNLEEAERLLEELEEELEEKGDERALRRVRFMLRSIEHVRSSSSS
B8: il2ra_site1_1z92_sap_10_mot_HHH_b1_00451_000000274_0001_21_37_H_._HEEHE_2072_0001_0000100014_0000001_1_0001_af2pred_0001_af2pred (protein)
chain: DDEEEIEHFVRLAAKTAGVPSVTWSEHNGELHVTINGDDEAAERLAKLLEKFAKASGLKVEVEIR
B9: il2ra_site1_1z92_normal_mot_6c2800a769814540b5b47941e710ff28_0001_af2_000000005_0001_35_49_H_._HEEHE_2850_af2_0001_0000500023_0000001_0 (protein)
chain: DREEKLKEELERLVKQAGVPSVEVEVKDGEIRVTIEGDDEHVRSAERIVERLARDAQVPVEFETG
B10: il2ra_site1_3nfp_sap_23_mot_HHH_b1_07396_000000043_0001_40_57_H_._HHH_b1_00305_0001_0000700020_0000001_0_0001_af2pred_0001_af2pred_1_swapped (protein)
chain: DIVEELVELALEENSPRLLERIFRDLERTLGDPEEAERRLIEIIAKLLGTPPEEAEKIVEEVIGP
B11: il2ra_site1_1z92_sap_9_mot_ffc8530cc3987bf120756695d8da17cc_0001_af2_000000243_0001_1_16_H_._HHH_b2_00297_af2_0001_0000200036_0000001_0_0001_af2pred_dldesign_0_ … (protein)
chain: SSSSSSPADELVDRLVEELKLPESARKDLRKYAEMLEAKGASPEQAERNLRKAADFMRKLSSSSS
B12: il2ra_site2_3nfp_normal_mot_HHH_b2_06150_000000217_0001_39_53_H_._HHH_b1_08710_0001_0000300029_0000001_0 (protein)
chain: SSSSSSDAEEEVEELLEEAKRIDDPEERREVLAKATKIAWENRDSELFFLIAEVLFKLVSSSSSS
B13: il2ra_site1_3nfp_sap_12_mot_c4dd8cf0dac887b0ed015202f8c0b8fc_0001_af2_000000043_0001_17_34_H_._HHH_b2_07872_af2_0001_0000100002_0000001_0_0001 (protein)
chain: GLEEVKKLVEELGDPQLRHFVKLLEHALRAIGDPIAREMAKRLFELLRRNDEEAQEFVKEVVEKL
B14: il2ra_site1_2b5i_normal_mot_HHH_b2_03466_af2_000000069_0001_42_56_H_._HHH_b2_05266_af2_0001_0000200015_0000001_0 (protein)
chain: SSSSSDEEEAKKAYELLEEANQIEDPEEARRLLEEAKKLAEEVNNRALLKFIERALEQLGSSSSS
B15: il2ra_site1_1z92_sap_25_mot_HHH_b2_05274_af2_000000237_0001_23_40_H_._HHH_b2_00297_0001_0000400044_0000001_0_0001_af2pred_0001_af2pred_swapped (protein)
chain: DLKRDLERSEEFFGDPRQALKAALRAIAAREGDPEEAVKALKEVLEELNDPELERLLKELAEKRR
B16: il2ra_site1_1z92_sap_13_mot_HHH_b1_07881_000000176_0001_43_56_H_._HHH_b2_03446_0001_0000700049_0000001_0_0001_af2pred_0001_af2pred_1 (protein)
chain: SSSSDEQLEWLEKQIRRALERGSERLAQRLIEMVRQWAEDFDDEEAREVAEELQRILEELSSSSS
B17: il2ra_site2_2erj_normal_mot_d8db7d3d6fba55db16f38f4fb78be25a_0001_af2_000000045_0001_18_32_H_._HHH_b1_06675_af2_0001_0000500008_0000001_0 (protein)
chain: SSSSELTMFAFKLVSRLAAELGLDAEQALELFEFALRLLERGVSEEEIKELVEELAEQLRGSSSS
B18: il2ra_site1_2b5i_normal_mot_HHH_b2_04910_000000118_0001_1_19_H_._HHH_b1_03255_af2_0001_0000100004_0000001_0_af2pred_dldesign_0_af2pred (protein)
chain: SSSSSGEEFRKALEEIERLFKEGKLEEATKLAEEALARARAARRALHARILELILKQILESSSSS

Molecular target: il2ra, P01589
Experiment: yeast display titration

Apparent Kd, inactive:
B1 no binding seen, B2 no binding seen, B3 no binding seen, B4 no binding seen, B5 no binding seen, B6 no binding seen, B7 no binding seen, B8 no binding seen, B9 no binding seen, B10 no binding seen, B11 no binding seen, B12 no binding seen, B13 no binding seen, B14 no binding seen, B15 no binding seen, B16 > 5.82 nM, B17 no binding seen, B18 no binding seen
